According to PMC3570372:
These are yes or no findings as the source states them, for the method shown. Some binding calls cover weakened binding; strength is not graded here.

T1: TGA5 (Arabidopsis thaliana) (UniProt Q39163)
T1 sequence: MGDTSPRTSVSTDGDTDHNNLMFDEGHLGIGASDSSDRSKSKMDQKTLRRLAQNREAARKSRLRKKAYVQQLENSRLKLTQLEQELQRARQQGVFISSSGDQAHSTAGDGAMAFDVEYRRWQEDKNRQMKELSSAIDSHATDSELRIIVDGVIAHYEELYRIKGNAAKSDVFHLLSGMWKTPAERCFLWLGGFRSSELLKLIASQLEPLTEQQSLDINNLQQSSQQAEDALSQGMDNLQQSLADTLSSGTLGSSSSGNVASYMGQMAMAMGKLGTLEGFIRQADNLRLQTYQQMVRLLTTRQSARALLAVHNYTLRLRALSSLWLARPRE

T2: BLADE-ON-PETIOLE2 (BOP2) (Arabidopsis thaliana) (UniProt Q9ZVC2)
T2 sequence: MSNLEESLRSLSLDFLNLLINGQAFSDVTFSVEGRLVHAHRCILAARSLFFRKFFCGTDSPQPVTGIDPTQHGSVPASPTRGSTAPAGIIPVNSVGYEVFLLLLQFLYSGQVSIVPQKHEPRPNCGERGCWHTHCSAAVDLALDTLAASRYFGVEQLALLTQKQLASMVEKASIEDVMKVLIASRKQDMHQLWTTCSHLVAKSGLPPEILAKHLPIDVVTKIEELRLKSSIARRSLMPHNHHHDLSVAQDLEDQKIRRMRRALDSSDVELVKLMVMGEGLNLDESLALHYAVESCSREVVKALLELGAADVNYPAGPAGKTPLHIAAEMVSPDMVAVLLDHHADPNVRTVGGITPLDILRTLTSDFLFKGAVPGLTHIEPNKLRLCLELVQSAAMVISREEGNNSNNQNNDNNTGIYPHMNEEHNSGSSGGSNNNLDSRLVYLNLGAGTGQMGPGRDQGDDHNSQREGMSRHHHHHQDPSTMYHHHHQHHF

T3: TGA2 (Arabidopsis thaliana) (UniProt P43273)
T3 sequence: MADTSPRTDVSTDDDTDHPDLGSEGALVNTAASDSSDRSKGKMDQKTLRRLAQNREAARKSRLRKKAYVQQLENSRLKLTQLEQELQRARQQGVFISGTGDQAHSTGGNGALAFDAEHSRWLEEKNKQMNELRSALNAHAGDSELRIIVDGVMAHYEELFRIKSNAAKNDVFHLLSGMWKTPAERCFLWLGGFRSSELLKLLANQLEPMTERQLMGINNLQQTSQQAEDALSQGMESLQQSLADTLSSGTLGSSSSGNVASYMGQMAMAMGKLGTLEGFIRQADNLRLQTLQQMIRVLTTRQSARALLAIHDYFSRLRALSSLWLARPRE

T4: TGA6 (Arabidopsis thaliana) (UniProt Q39140)
T4 sequence: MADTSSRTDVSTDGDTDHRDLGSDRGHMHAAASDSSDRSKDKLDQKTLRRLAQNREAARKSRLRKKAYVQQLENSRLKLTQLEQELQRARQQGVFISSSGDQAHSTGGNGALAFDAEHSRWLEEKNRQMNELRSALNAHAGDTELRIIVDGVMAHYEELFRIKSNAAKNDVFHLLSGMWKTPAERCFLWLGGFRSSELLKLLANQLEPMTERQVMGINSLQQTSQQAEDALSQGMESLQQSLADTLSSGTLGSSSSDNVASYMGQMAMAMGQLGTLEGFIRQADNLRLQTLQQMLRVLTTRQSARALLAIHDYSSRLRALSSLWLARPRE


Columns and labels:
[1] = biological target: T1, TGA5 (Arabidopsis thaliana); experiment: two-hybrid; data not shown; yeast two-hybrid with NPR1 or npr1 alleles in a third plasmid
[2] = biological target: T2, BLADE-ON-PETIOLE2 (BOP2) (Arabidopsis thaliana); experiment: two-hybrid; yeast two-hybrid (n-hybrid) with pDEST22 and pDEST32 fusions, NPR1 or npr1 alleles in a third plasmid (pARC352); interaction quantified in Miller Units
[3] = biological target: T3, TGA2 (Arabidopsis thaliana); experiment: as above
[4] = biological target: T4, TGA6 (Arabidopsis thaliana); experiment: as above
[5] = biological target: T3, TGA2 (Arabidopsis thaliana); experiment: two-hybrid; data not shown; yeast two-hybrid with NPR1 or npr1 alleles in a third plasmid
[6] = biological target: T4, TGA6 (Arabidopsis thaliana); experiment: as above

Row | binding [1] | binding [2] | binding [3] | binding [4] | binding [5] | binding [6] | Binder
1 | binds | binds | binds | binds |  |  | BLADE-ON-PETIOLE1 (BOP1) (protein, UniProt Q9M1I7 1-467) MSNTFEESLKSMSLDYLNLLINGQAFSDVTFSVEGRLVHAHRCILAARSLFFRKFFCESDPSQPGAEPANQTGSGARAAAVGGVIPVNSVGYEVFLLLLQFLYSGQVSIVPHKHEPRSNCGDRGCWHTHCTAAVDLSLDILAAARYFGVEQLALLTQKHLTSMVEKASIEDVMKVLIASRKQDMHQLWTTCSYLIAKSGLPQEILAKHLPIELVAKIEELRLKSSMPLRSLMPHHHDLTSTLDLEDQKIRRMRRALDSSDVELVKLMVMGEGLNLDESLALIYAVENCSREVVKALLELGAADVNYPAGPTGKTALHIAAEMVSPDMVAVLLDHHADPNVQTVDGITPLDILRTLTSDFLFKGAIPGLTHIEPNKLRLCLELVQSAALVISREEGNNNSNDNNTMIYPRMKDEHTSGSSLDSRLVYLNLGATNRDIGDDNSNQREGMNLHHHHHDPSTMYHHHHHHF
2 | binds |  |  |  | binds | binds | BLADE-ON-PETIOLE2 (BOP2) (protein, UniProt Q9ZVC2 1-491) MSNLEESLRSLSLDFLNLLINGQAFSDVTFSVEGRLVHAHRCILAARSLFFRKFFCGTDSPQPVTGIDPTQHGSVPASPTRGSTAPAGIIPVNSVGYEVFLLLLQFLYSGQVSIVPQKHEPRPNCGERGCWHTHCSAAVDLALDTLAASRYFGVEQLALLTQKQLASMVEKASIEDVMKVLIASRKQDMHQLWTTCSHLVAKSGLPPEILAKHLPIDVVTKIEELRLKSSIARRSLMPHNHHHDLSVAQDLEDQKIRRMRRALDSSDVELVKLMVMGEGLNLDESLALHYAVESCSREVVKALLELGAADVNYPAGPAGKTPLHIAAEMVSPDMVAVLLDHHADPNVRTVGGITPLDILRTLTSDFLFKGAVPGLTHIEPNKLRLCLELVQSAAMVISREEGNNSNNQNNDNNTGIYPHMNEEHNSGSSGGSNNNLDSRLVYLNLGAGTGQMGPGRDQGDDHNSQREGMSRHHHHHQDPSTMYHHHHQHHF
